Test results: ChEMBL document CHEMBL1133758, “Docking-based development of purine-like inhibitors of cyclin-dependent kinase-2” (J Med Chem, 2000)

The chains behind the UniProt entries cited, without tags or fusion partners.
UniProt P06493, whole entry: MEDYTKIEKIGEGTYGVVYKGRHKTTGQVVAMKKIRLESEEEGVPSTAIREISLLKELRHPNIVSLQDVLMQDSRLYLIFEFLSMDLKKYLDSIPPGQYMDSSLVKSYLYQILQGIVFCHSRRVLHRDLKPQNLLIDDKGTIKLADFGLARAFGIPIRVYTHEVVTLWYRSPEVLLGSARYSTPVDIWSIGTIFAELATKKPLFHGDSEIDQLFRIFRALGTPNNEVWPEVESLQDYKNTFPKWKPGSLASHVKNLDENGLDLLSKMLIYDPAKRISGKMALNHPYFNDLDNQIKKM

Target: Cyclin-dependent kinase 1 (Homo sapiens, UniProt P06493)
Assay: Inhibition of Cyclin-dependent kinase 1

SMILES: CC(C)n1cnc2c(NCc3ccccc3)nc(NCCCO)nc21 [BOHEMINE]
- IC50: 2500 nM
